Values joined by “and” are separate entries in the source; they are usually repeats but may differ in a detail not shown here. Identical values can stand only once. Counter-ions that a name gives are not always drawn. ± gives the standard deviation of the averaged measurements. Some of the results follow. Part of the spread comes from offsets between plates or batches.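 Culture-activated primary human stellate myofibroblasts, where regained lipid droplets signal inactivation. Value: share of Hoechst-counted cells above a per-plate Bodipy cutoff, in duplicate wells, with DMSO negative and nortriptyline positive controls on each plate. Hits: a control-normalized score above the plate's top-tenth-percentile nortriptyline wells, or one of a plate's three best wells. Final well concentrations are not given.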
System: primary human hepatic stellate cells (donor 1)
Experiment: percent Bodipy-positive cells; higher = more lipid droplet accumulation
Settings: 48 h
[1] = library stock concentration: 1 mM
[2] = library stock concentration: 3.33 mM
[3] = library stock concentration: 10 mM
[4] = library stock concentration: 3.1 mM

CC1=C2C[C@H]3[C@@H](CC=C4C[C@@H](O)CC[C@@]43C)[C@@H]2CC[C@]12O[C@@H]1C[C@H](C)CN[C@H]1[C@H]2C [Cyclopamine]
percent Bodipy-positive cells (library stock concentration: 12.1 mM): 31.2 ± 3%

CCCCC/C=C\C/C=C\C/C=C\C/C=C\CCCC(=O)N[C@@H](CO)C(=O)O [N-Arachidonoyl-L-Serine]
percent Bodipy-positive cells [1]: 8.73 ± 2.5%

CC(C)NCC(O)c1ccccc1Cl (centres undefined) [Clorprenaline HCl]
percent Bodipy-positive cells [2]: 12.6 ± 5.2%
percent Bodipy-positive cells [3]: 37.6 ± 15%

Br.Br.N=C(NCc1ccc(Cl)cc1)SCCCc1c[nH]cn1 [Clobenpropit dihydrobromide]
percent Bodipy-positive cells [3]: 88.2 ± 1.2%

S=C=Nc1cccc(C2(N3CCCCC3)CCCCC2)c1 [Metaphit]
percent Bodipy-positive cells [3]: 99 ± 1.5%

CC[C@H]1CN2CC[C@H]1C[C@H]2[C@H](O)c1ccnc2ccc(OC)cc12 [Hydroquinine hydrobromide hydrate]
percent Bodipy-positive cells: 34.4 ± 3.4%

FC(F)(F)c1cccc(C2=CCN(CCc3ccc4ccccc4c3)CC2)c1 [Xaliproden hydrochloride]
percent Bodipy-positive cells [3]: 26.2 ± 6.3%

C=CCN1CC[C@]23CCCC[C@H]2[C@H]1Cc1ccc(O)cc13 [Levallorphan tartrate]
percent Bodipy-positive cells (library stock concentration: 7.1 mM): 21.2 ± 4.6%
percent Bodipy-positive cells [3]: 80 ± 6%

O=c1ccc2[nH]cc(C3=CCNCC3)c2[nH]1
percent Bodipy-positive cells [3]: 9.97% and 8.03%

CCCCCC=CCC=CCC=CCC=CCCCC(=O)NCC(O)CC(=O)O (centres undefined) [N-Arachidonoyl-3-hydroxy-.gamma.-Aminobutyric Acid]
percent Bodipy-positive cells [1]: 16.4 ± 5.9%

CCCN1CC[C@@H]2c3cc(O)ccc3CC[C@@H]21 (racemic) [cis(+/-)-8-OH-PBZI hydrobromide]
percent Bodipy-positive cells [3]: 43.1 ± 1.1%

O=C(O)/C=C/CO [trans-4-Hydroxycrotonic acid]
percent Bodipy-positive cells [3]: 7.06 ± 0.58%

CC(=O)Nc1cc([As](=O)(O)O)ccc1O [Acetarsol]
percent Bodipy-positive cells (library stock concentration: 7.3 mM): 12.3 ± 0.73%
percent Bodipy-positive cells [3]: 17.2 ± 8.2%

Cc1cc2c(C(C)C)c(O)c(O)c(C=O)c2c(O)c1-c1c(C)cc2c(C(C)C)c(O)c(O)c(C=O)c2c1O
percent Bodipy-positive cells [2]: 5.68 ± 2%
percent Bodipy-positive cells [3]: 84.2 ± 6.4%

Cc1cc2c(C(C)C)c(O)c(O)c(C=O)c2c(O)c1-c1c(C)cc2c(C(C)C)c(O)c(O)c(C=O)c2c1O [Gossypol]
percent Bodipy-positive cells: 5.23 ± 1.1%
percent Bodipy-positive cells [2]: 6.237 ± 0.046%
percent Bodipy-positive cells [3]: 76.9% and 83%

C/C=C(\C)C(=O)O[C@H]1C[C@@H](OC(C)=O)[C@@]2(C(=O)OC)CO[C@H]3[C@@H](O)[C@@](C)([C@]45O[C@@]4(C)[C@H]4C[C@@H]5O[C@@H]5OC=C[C@@]54O)[C@H]4[C@]1(CO[C@]4(O)C(=O)OC)[C@@H]32 [Azadirachtin]
percent Bodipy-positive cells [3]: 46.9 ± 11%

CC(C(=O)OC1CC2CCC(C1)N2C)c1ccc(Br)cc1.O=C(O)/C=C\C(=O)O (centres undefined) [PG-9 maleate]
percent Bodipy-positive cells [3]: 58.8 ± 2.1%

CC(=O)[O][Hg][c]1ccccc1 [Phenylmercuric acetate]
percent Bodipy-positive cells (library stock concentration: 5.9 mM): 82 ± 13%
percent Bodipy-positive cells [3]: 92.1 ± 3%

O=c1[nH]c2ccccc2n1C1CCN(CCCC(c2ccc(F)cc2)c2ccc(F)cc2)CC1 [Pimozide]
percent Bodipy-positive cells: 39.7 ± 1.7%
percent Bodipy-positive cells [3]: 33.1 ± 6.5%

C#CCN(C)[C@H](C)Cc1ccccc1 [Selegiline hydrochloride]
percent Bodipy-positive cells: 18.8 ± 0.56%
percent Bodipy-positive cells (library stock concentration: 8.9 mM): 11.5 ± 4.6%

C#CCN(C)[C@H](C)Cc1ccccc1 [Selegiline]
percent Bodipy-positive cells (library stock concentration: 10.7 mM): 8.55 ± 1.9%

C#CCN(C)[C@H](C)Cc1ccccc1 [Benzeneethanamine, N,Alpha-dimethyl-N-2-propynyl-(R)- [CAS]]
percent Bodipy-positive cells [3]: 7.33 ± 3.1%

CN1CCN(c2nc3ccccc3nc2Cl)CC1
percent Bodipy-positive cells [2]: 6.53 ± 2.6%
percent Bodipy-positive cells [3]: 36.2 ± 4.4%

CN(C)C(=O)Oc1ccc[n+](C)c1 [Mestinon]
percent Bodipy-positive cells [3]: 26.3 ± 3.2%

CN(C)C(=O)Oc1ccc[n+](C)c1 [Pyridostigmine Bromide]
percent Bodipy-positive cells [2]: 7.44 ± 2.2%
percent Bodipy-positive cells [3]: 9.74 ± 0.32%

CN(C)C(=O)Oc1ccc[n+](C)c1 [Pyridostigmine bromide]
percent Bodipy-positive cells (library stock concentration: 7.7 mM): 8.83 ± 3.6%

C[C@@H]1O[C@@H](O[C@@H]2C=C3CC[C@@H]4[C@H](CC[C@]5(C)[C@@H](c6ccc(=O)oc6)CC[C@]45O)[C@@]3(C)CC2)[C@H](O)[C@H](O)[C@H]1O [Proscillaridin A]
percent Bodipy-positive cells: 67.4 ± 4.1%

N[C@H](C(=O)O)c1cc(O)no1 [(?)-Ibotenic acid]
percent Bodipy-positive cells [3]: 41.2 ± 2.6%

N[C@H](C(=O)O)c1cc(O)no1 [Ibotenic acid]
percent Bodipy-positive cells [3]: 7.66 ± 0.84%

CCN1CC2(OC(=O)c3ccccc3NC(C)=O)CCC(OC)C34C1C(CC23)C1(O)CC(OC)C2CC4C1(O)C2OC (centres undefined) [Lappaconite HBr]
percent Bodipy-positive cells [2]: 12.2 ± 4.3%
percent Bodipy-positive cells [3]: 13.3 ± 7.4%

CCCCC/C=C\C/C=C\C/C=C\C/C=C\CCCC(=O)NCc1ccoc1
percent Bodipy-positive cells [1]: 15.6 ± 1.3%

C[C@]12CC[C@@H](O)C[C@H]1CC[C@@H]1[C@@H]2CC[C@]2(C)C(=O)CC[C@@H]12 [3-alpha-Hydroxy-5-beta-androstan-17-one]
percent Bodipy-positive cells: 15.6 ± 0.27%

CC(N)c1cccc(Cl)c1Cl (centres undefined)
percent Bodipy-positive cells [3]: 68.6 ± 7.7%

CN1CCC2=C[C@H](O)[C@H]3OC(=O)c4cc5c(cc4[C@H]3[C@@H]21)OCO5 [Hippeastrine hydrobromide]
percent Bodipy-positive cells: 11.2 ± 2.4%

N#CC(C#N)=Cc1ccc([N+](=O)[O-])c(O)c1
percent Bodipy-positive cells [1]: 10.7 ± 5%

N#CC(C#N)=Cc1ccc([N+](=O)[O-])c(O)c1 [Tyrphostin AG-126]
percent Bodipy-positive cells (library stock concentration: 23.2 mM): 15 ± 0.21%

O=[N+]([O-])OCC(CO[N+](=O)[O-])O[N+](=O)[O-] [Nitroglycerin]
percent Bodipy-positive cells (library stock concentration: 8.8 mM): 56.7 ± 6.3%

CCN(CC)C(=O)c1ccc(C2=CC3(CCNCC3)Oc3cccc(O)c32)cc1
percent Bodipy-positive cells [2]: 20.8 ± 4.1%
percent Bodipy-positive cells [3]: 49 ± 2.6%

O=S1(=O)N(CCN2CC=C(c3c[nH]c4cc(F)ccc34)CC2)c2cccc3c2N1CCC3
percent Bodipy-positive cells [3]: 58.3 ± 7.5%

CC[C@H]1CN2CCc3cc(OC)c(OC)cc3[C@@H]2C[C@@H]1C[C@H]1NCCc2cc(OC)c(OC)cc21.Cl.Cl [Emetine dihydrochloride]
percent Bodipy-positive cells: 85.9 ± 1.1%

CN1CCN(c2ccc3ccccc3n2)CC1 [N-Methylquipazine dimaleate]
percent Bodipy-positive cells [3]: 29.3 ± 4.8%

CC1OC(OC2/C=C/C=C/C=C/C=C/CC/C=C/C=C/[C@H](C)[C@@H](O)[C@@H](C)[C@H](C)OC(=O)CC(O)CC(O)CC(O)CCC(O)C(O)C[C@]3(O)CC(O)C(C(=O)O)C(C2)O3)C(O)C(N)C1O (some centres undefined) [Nystatine]
percent Bodipy-positive cells: 30.3 ± 8%

NCCCNCCSP(=O)(O)O [Amifostine]
percent Bodipy-positive cells (library stock concentration: 9.3 mM): 8.38 ± 2.2%
percent Bodipy-positive cells [3]: 44 ± 10%

O=[N+]([O-])c1ccc(O)c([N+](=O)[O-])c1 [2,4-dinitrophenol]
percent Bodipy-positive cells [3]: 27.2 ± 7.2%

CN=C(NS(=O)(=O)c1ccc(Cl)cc1)N1CC(c2ccccc2)C(c2ccc(Cl)cc2)=N1 (centres undefined)
percent Bodipy-positive cells [1]: 12.5 ± 5%

Clc1ccc(N2CCN(Cc3c[nH]c4ncccc34)CC2)cc1 [L-745,870 trihydrochloride]
percent Bodipy-positive cells [3]: 27.4 ± 0.38%

CCn1cnc2c(Nc3cccc(Cl)c3)nc(N[C@@H]3CCCC[C@@H]3N)nc21
percent Bodipy-positive cells (library stock concentration: 80 uM): 15.4 ± 11%
percent Bodipy-positive cells (library stock concentration: 400 uM): 13.5 ± 6%
percent Bodipy-positive cells (library stock concentration: 2 mM): 47.8 ± 9.7%
percent Bodipy-positive cells [3]: 75.2% and 100%

O=c1[nH]c2ccc(Cl)cc2c(N[C@@H]2CN3CCC2CC3)c1-c1nc2ccccc2[nH]1
percent Bodipy-positive cells [2]: 41.7 ± 10%
percent Bodipy-positive cells [3]: 96.1 ± 4%

Nc1ccc([As](=O)(O)O)cc1 [Arsanilic acid]
percent Bodipy-positive cells (library stock concentration: 9.2 mM): 8.55 ± 1%

CC1(C)[C@@H](O)C[C@H]2[C@](C)(O)[C@@H]3CC[C@@H]4[C@@H](O)[C@@]3(C[C@@H](O)[C@@]21O)C[C@@]4(C)O [Grayanotoxin III]
percent Bodipy-positive cells (library stock concentration: 13.5 mM): 13.9 ± 2.7%

CCCCCCCC/C=C\CCCCCCCC(=O)N[C@H](C)CO
percent Bodipy-positive cells [1]: 24.6 ± 1.4%

COP(=S)(OC)Oc1cc(Cl)c(Cl)cc1Cl [Ronnel]
percent Bodipy-positive cells (library stock concentration: 6.2 mM): 16.2 ± 8.5%

NCCC(O)C(=O)NC1CC(N)C(OC2OC(CN)C(O)[C@H](O)[C@@H]2N)[C@H](OC2O[C@H](CO)[C@@H](O)[C@@H]2O)[C@@H]1O (some centres undefined) [Butirosin disulfate salt]
percent Bodipy-positive cells: 6.3 ± 1.9%

c1cc(N2CCNCC2)c2cnccc2c1 [8-piperazin-1-yl-Isoquinoline (hydrochloride)]
percent Bodipy-positive cells [1]: 8.25 ± 0.39%

CNCC(O)c1ccc(O)cc1 (centres undefined) [Synephrine]
percent Bodipy-positive cells [2]: 18.2 ± 2.5%
percent Bodipy-positive cells [3]: 14.4 ± 3%

CNCC(O)c1ccc(O)cc1 (centres undefined) [Synephrine HCl]
percent Bodipy-positive cells [2]: 12.8 ± 4.4%
percent Bodipy-positive cells [3]: 13.2 ± 5.4%

CNCC(O)c1ccc(O)cc1 (centres undefined) [(?)-Synephrine]
percent Bodipy-positive cells [3]: 12.3 ± 6.1%

CNCC(O)c1ccc(O)cc1 (centres undefined)
percent Bodipy-positive cells [3]: 6.75% and 27.7%

CC(C)NCC(O)c1ccc(N)c(C#N)c1 (centres undefined) [Cimaterol]
percent Bodipy-positive cells (library stock concentration: 9.1 mM): 10.8 ± 3.1%
percent Bodipy-positive cells [3]: 8.31 ± 2.1%
percent Bodipy-positive cells (library stock concentration: 22.8 mM): 34.6 ± 3.1%

COC(=O)[C@@]1(O)C[C@H]2O[C@]1(C)n1c3ccccc3c3c4c(c5c6ccccc6n2c5c31)C(=O)NC4
percent Bodipy-positive cells (library stock concentration: 1.1 mM): 1.97 ± 0.1%

CCC1=C[C@H]2CN3CCc4c([nH]c5ccccc45)[C@](C(=O)OC)(C2)[C@H]13 [Catharanthine]
percent Bodipy-positive cells: 36.5 ± 4.3%
percent Bodipy-positive cells [2]: 11.7 ± 0.86%
percent Bodipy-positive cells [3]: 59.2 ± 15%

C#CCOC(=O)C1=CCCN(C)C1 [Arecaidine propargyl ester hydrobromide]
percent Bodipy-positive cells [3]: 38.3 ± 3%

C#CCOC(=O)C1=CCCN(C)C1 [Arecaidine propargyl ester tosylate]
percent Bodipy-positive cells [3]: 9.16 ± 3.1%

CC(C)C[C@H]1C(=O)N2CCC[C@H]2[C@]2(O)O[C@](NC(=O)[C@@H]3C=C4c5cccc6[nH]c(Br)c(c56)C[C@H]4N(C)C3)(C(C)C)C(=O)N12 [Bromocriptine mesylate]
percent Bodipy-positive cells [4]: 8.93 ± 0.89%
percent Bodipy-positive cells [3]: 8.31% and 15.8%

CC(C)C[C@H]1C(=O)N2CCC[C@H]2[C@]2(O)O[C@](NC(=O)[C@@H]3C=C4c5cccc6[nH]c(Br)c(c56)C[C@H]4N(C)C3)(C(C)C)C(=O)N12 [Bromocryptine mesylate]
percent Bodipy-positive cells: 58.6 ± 18%

CC(C)C[C@H]1C(=O)N2CCC[C@H]2[C@]2(O)O[C@](NC(=O)[C@@H]3C=C4c5cccc6[nH]c(Br)c(c56)C[C@H]4N(C)C3)(C(C)C)C(=O)N12 [(+)-Bromocriptine methanesulfonate]
percent Bodipy-positive cells [3]: 79.9 ± 4.2%

CN1C[C@H](CNC(=O)OCc2ccccc2)C[C@@H]2c3cccc4c3c(cn4C)C[C@H]21 [Metergoline]
percent Bodipy-positive cells: 89.6 ± 2.1%

c1ccc(CCCN2CCN(CCOC(c3ccccc3)c3ccccc3)CC2)cc1
percent Bodipy-positive cells [3]: 90.7% and 66%

C=CCN1CC[C@]23c4c5ccc(O)c4O[C@H]2/C(=N/N=C2\CC[C@@]4(O)[C@H]6Cc7ccc(O)c8c7[C@@]4(CCN6CC=C)[C@H]2O8)CC[C@@]3(O)[C@H]1C5 [Naloxonazine 2HCl]
percent Bodipy-positive cells [4]: 17.4 ± 2%
